Results reported in PMC8479480.
Results are given in words; binding and its absence hold for the method and conditions named. Binding seen in cells or lysates may run through a third protein. Some entries that bind do so weakly or less than the wild type.

Amino acid sequences for entries named in this document (tags omitted). Residues count along the entry.
UniProt P35951, residues 22-862: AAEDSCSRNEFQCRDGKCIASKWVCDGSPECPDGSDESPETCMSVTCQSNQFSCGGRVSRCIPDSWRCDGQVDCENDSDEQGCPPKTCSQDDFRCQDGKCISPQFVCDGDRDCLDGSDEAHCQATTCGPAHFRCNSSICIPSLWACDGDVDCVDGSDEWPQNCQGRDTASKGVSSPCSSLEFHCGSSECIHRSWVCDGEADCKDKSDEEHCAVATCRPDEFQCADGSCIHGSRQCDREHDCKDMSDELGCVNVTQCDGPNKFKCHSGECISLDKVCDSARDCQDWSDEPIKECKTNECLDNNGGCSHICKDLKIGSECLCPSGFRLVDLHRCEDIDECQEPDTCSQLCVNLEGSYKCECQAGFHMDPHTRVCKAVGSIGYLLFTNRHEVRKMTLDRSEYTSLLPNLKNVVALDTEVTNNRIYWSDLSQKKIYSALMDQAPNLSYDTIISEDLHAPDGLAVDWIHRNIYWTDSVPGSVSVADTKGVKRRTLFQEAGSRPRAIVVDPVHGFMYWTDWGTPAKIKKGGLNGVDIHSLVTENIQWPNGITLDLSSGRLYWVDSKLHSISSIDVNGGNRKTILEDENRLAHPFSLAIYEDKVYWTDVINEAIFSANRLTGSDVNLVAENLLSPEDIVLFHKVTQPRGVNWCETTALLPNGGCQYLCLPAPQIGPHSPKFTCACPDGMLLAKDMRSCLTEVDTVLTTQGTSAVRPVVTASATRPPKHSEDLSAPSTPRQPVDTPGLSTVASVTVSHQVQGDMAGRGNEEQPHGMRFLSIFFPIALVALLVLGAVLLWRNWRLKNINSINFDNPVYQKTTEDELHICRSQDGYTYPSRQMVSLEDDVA

Target: T1, ASGR1, endogenous mouse liver (mouse (endogenous in liver)) (UniProt P34927)
T1 sequence: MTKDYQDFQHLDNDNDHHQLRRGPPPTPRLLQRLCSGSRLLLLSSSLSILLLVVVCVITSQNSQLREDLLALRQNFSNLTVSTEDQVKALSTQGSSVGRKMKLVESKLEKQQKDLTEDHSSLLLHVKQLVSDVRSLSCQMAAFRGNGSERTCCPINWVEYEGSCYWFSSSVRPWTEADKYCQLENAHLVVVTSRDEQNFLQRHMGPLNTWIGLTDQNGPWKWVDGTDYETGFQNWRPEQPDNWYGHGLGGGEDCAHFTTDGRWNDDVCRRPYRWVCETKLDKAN
Assay: co-IP; endogenous proteins; liver lysates of WT and Pcsk9-KO mice (1 mg total protein, Pierce nondenaturing IP buffer) with 2 μg rabbit anti-ASGR1 antibody overnight at 4 °C, Protein G magnetic beads; Western blot for LDLR and ASGR1

binding: binds
Substance: LDLR, endogenous mouse liver (from UniProt P35951 22-862) (receptor)
